Reference: paper PMC8593192
Results are given in words; binding and its absence hold for the method and conditions named. Binding seen in cells or lysates may run through a third protein. Some binding calls cover weakened binding; strength is not graded here.

Sequences of proteins named here, by UniProt entry; tags and fusion partners are left off. A change or cut given only in a name is not applied to a line headed by its entry.
UniProt Q13557: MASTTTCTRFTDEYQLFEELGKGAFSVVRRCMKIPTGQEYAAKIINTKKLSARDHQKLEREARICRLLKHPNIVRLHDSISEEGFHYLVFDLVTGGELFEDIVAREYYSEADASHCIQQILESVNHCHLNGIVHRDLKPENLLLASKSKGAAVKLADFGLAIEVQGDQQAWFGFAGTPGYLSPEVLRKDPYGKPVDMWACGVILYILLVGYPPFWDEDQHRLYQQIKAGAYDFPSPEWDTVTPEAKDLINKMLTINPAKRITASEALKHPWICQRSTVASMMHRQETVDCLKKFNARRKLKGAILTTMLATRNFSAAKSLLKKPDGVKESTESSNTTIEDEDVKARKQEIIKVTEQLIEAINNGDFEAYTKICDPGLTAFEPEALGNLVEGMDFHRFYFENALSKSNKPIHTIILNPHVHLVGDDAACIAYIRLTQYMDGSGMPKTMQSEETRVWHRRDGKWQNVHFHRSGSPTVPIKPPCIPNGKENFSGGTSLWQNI
UniProt Q9Y5Y9: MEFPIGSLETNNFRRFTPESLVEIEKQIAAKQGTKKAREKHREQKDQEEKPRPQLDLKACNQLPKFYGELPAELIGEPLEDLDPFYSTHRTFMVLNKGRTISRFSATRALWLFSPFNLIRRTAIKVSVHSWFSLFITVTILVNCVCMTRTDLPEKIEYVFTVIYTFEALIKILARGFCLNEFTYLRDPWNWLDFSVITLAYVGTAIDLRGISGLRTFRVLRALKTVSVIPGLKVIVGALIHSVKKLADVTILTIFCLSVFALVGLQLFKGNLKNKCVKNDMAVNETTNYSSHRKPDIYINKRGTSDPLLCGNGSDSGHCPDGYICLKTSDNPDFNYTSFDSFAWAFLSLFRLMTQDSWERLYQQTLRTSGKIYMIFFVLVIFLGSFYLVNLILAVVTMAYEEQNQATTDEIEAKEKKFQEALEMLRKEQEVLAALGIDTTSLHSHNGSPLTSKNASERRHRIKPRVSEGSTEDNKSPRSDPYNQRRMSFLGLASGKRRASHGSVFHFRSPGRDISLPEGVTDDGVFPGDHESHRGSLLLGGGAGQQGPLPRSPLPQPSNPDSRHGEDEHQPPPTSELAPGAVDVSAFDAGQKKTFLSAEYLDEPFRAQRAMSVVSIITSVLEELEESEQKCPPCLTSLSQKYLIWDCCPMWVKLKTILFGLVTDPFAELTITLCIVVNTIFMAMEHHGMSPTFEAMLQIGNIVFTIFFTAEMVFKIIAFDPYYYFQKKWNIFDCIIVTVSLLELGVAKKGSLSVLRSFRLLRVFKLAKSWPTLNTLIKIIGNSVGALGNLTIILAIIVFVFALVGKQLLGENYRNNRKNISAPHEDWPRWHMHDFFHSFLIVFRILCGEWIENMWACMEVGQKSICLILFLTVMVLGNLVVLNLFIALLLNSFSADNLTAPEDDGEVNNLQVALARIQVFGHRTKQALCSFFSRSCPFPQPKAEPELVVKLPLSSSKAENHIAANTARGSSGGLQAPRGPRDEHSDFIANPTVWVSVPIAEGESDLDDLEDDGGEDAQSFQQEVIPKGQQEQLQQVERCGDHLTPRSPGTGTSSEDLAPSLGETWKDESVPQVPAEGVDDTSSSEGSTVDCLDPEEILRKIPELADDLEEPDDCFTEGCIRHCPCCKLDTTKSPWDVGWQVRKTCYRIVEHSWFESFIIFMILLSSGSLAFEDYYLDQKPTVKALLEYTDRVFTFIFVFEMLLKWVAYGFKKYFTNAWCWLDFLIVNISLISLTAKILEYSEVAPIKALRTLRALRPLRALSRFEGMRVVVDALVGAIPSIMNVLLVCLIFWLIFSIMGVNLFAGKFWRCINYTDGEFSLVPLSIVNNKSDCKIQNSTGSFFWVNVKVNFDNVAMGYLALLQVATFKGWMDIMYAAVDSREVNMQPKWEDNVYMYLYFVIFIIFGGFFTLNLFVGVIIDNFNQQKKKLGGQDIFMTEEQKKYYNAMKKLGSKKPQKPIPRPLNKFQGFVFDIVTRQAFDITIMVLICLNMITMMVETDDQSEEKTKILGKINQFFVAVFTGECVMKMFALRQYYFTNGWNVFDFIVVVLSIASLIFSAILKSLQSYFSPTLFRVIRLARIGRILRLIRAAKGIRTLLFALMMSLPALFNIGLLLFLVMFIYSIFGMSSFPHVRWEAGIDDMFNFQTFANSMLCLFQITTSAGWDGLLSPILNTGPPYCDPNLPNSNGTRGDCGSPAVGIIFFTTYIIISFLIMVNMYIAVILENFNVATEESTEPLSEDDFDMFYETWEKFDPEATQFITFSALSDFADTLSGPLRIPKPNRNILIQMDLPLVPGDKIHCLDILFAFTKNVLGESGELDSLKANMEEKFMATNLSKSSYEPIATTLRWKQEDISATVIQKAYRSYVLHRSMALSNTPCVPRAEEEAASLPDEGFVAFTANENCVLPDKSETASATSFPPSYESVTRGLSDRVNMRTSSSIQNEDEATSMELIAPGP

Target: Ca2+/calmodulin-dependent protein kinase IIδc (human (endogenous in left ventricular myocardium)) (UniProt Q13557)
Assay: co-IP; human left ventricular homogenates (non-failing and failing hearts) in 1% CHAPS in RIPA buffer, pH 7.4; CaMKIIδc immunoprecipitated with rabbit polyclonal anti-CaMKIIδ (3 μg/500 μg protein, overnight 4 °C) and protein G Plus Agarose; Western blot for NaV1.8

- binding: binds
Substance: NaV1.8 (voltage-gated sodium channel isoform encoded by the SCN10A gene) (from UniProt Q9Y5Y9 1-1956)
